Results are given in words; binding and its absence hold for the method and conditions named. Some binding calls cover weakened binding; strength is not graded here. Where a sequence is shown, tags or fusion partners need not be part of it.
Target: T1, SBP-Halotag-Crb3 (UniProt Q9BUF7)
T1 sequence: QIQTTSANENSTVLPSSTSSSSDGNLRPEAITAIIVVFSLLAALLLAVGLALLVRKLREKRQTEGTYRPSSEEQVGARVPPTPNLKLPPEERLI
Assay: FRAP (fluorescence recovery after photobleaching); live confluent Eph4 cells at 37°C, 5% CO2; biotin withheld so that SBP-Halo-Crb3 is held at the ER by Streptavidin-KDEL; recovery of mApple-Pals1 compared with and without Crb3 retained at the ER, and with the recovery of SBP-Halo-Crb3

binding: binds
B1: mApple-tagged Pals1 (protein, UniProt Q9JLB2 1-675)
chain: MTTSYMNGHVTEESDSGIKNLDLASPEEYPKHREMAVDCPGDLGTRMMPVRRSAQLERIRQQQEDMRRRREEEGKKQELDLNSSMRLKKLAQIPPKTGIDNPIFDTEEGIVLESPHYAVNILDVEDLFSSLKHIQHTLVDSQSQEDISLLLQLVQNRDFQNAFKIHNAVTVHMSKASPPFPLIANVQDLVQEVQTVLKPVHQKEGQELTALLNAPHIQALLLAHDKVAEQEMQLEPITDERVYESIGHYGGETVKIVRIEKARDIPLGATVRNEMDSVIISRIVKGGAAEKSGLLHEGDEVLEINGIEIRGKDVNEVFDLLSDMHGTLTFVLIPSQQIKPPPAKETVIHVKAHFDYDPSDDPYVPCRELGLSFQKGDILHVISQEDPNWWQAYREGDEDNQPLAGLVPGKSFQQQREAMKQTIEEDKEPEKSGKLWCAKKNKKKRKKVLYNANKNDDYDNEEILTYEEMSLYHQPANRKRPIILIGPQNCGQNELRQRLMNKEKDRFASAVPHTTRNRRDHEVAGRDYHFVSRQAFEADIAAGKFIEHGEFEKNLYGTSIDSVRQVINSGKICLLSLRTQSLKTLRNSDLKPYIIFIAPPSQERLRALLAKEGKNPKPEELREIIEKTREMEQNNGHYFDTAIVNSDLDKAYQELLRLINKLDTEPQWVPSTWLR

From article PMC10418535
